First the molecules themselves.
T1: Act1 in IL-17RB-deficient MEFs reconstituted with Myc-tagged IL-17RB (mouse (cells are mouse embryonic fibroblasts)) (UniProt Q8N7N6)
T1 sequence (looked up): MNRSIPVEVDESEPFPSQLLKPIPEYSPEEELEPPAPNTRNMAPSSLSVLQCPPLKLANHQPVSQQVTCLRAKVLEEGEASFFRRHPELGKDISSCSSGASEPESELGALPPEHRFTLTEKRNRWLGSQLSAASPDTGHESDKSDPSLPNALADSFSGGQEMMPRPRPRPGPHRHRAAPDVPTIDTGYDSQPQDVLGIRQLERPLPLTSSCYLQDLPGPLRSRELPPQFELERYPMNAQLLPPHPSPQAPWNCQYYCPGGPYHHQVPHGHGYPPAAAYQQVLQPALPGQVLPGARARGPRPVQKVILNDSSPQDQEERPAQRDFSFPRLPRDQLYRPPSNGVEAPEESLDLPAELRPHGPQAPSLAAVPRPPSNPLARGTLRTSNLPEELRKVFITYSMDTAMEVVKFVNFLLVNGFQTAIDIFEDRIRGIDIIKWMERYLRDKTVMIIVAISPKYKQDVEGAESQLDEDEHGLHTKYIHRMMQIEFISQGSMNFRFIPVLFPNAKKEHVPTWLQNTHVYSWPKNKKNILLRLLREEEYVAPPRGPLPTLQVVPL

B1: Myc-tagged mouse IL-17RB point mutant S416R (receptor, UniProt Q9JIP3 18-499, looked up)
chain: REPTIQCGSETGPSPEWMVQHTLTPGDLRDLQVELVKTSVAAEEFSILMNISWILRADASIRLLKATKICVSGKNNMNSYSCVRCNYTEAFQSQTRPSGGKWTFSYVGFPVELSTLYLISAHNIPNANMNEDSPSLSVNFTSPGCLNHVMKYKKQCTEAGSLWDPDITACKKNEKMVEVNFTTNPLGNRYTILIQRDTTLGFSRVLENKLMRTSVAIPVTEESEGAVVQLTPYLHTCGNDCIRREGTVVLCSETSAPIPPDDNRRMLGGWLPLFLVLLVAVWVLAAGIYLTWRQGRSTKTSFPISTMLLPLIKVLVVYPSEICFHHTVCRFTDFLQNYCRSEVILEKWQKKKIAEMGPVQWLTTQKQAADKVVFLLPSDVPTLCDSACGHNEGSARENRQDLFPLAFNLFCSDFSSQTHLHKYLVVYLGGADLKGDYNALSVCPQYHLMKDATAFHTELLKATQSMSVKKRSQACHDSCSPL
B2: Myc-tagged mouse IL-17RB point mutant Q417R (receptor, UniProt Q9JIP3 18-499, looked up)
chain: REPTIQCGSETGPSPEWMVQHTLTPGDLRDLQVELVKTSVAAEEFSILMNISWILRADASIRLLKATKICVSGKNNMNSYSCVRCNYTEAFQSQTRPSGGKWTFSYVGFPVELSTLYLISAHNIPNANMNEDSPSLSVNFTSPGCLNHVMKYKKQCTEAGSLWDPDITACKKNEKMVEVNFTTNPLGNRYTILIQRDTTLGFSRVLENKLMRTSVAIPVTEESEGAVVQLTPYLHTCGNDCIRREGTVVLCSETSAPIPPDDNRRMLGGWLPLFLVLLVAVWVLAAGIYLTWRQGRSTKTSFPISTMLLPLIKVLVVYPSEICFHHTVCRFTDFLQNYCRSEVILEKWQKKKIAEMGPVQWLTTQKQAADKVVFLLPSDVPTLCDSACGHNEGSARENSRDLFPLAFNLFCSDFSSQTHLHKYLVVYLGGADLKGDYNALSVCPQYHLMKDATAFHTELLKATQSMSVKKRSQACHDSCSPL
B3: Myc-tagged mouse IL-17RB point mutant D418V (receptor, UniProt Q9JIP3 18-499, looked up)
chain: REPTIQCGSETGPSPEWMVQHTLTPGDLRDLQVELVKTSVAAEEFSILMNISWILRADASIRLLKATKICVSGKNNMNSYSCVRCNYTEAFQSQTRPSGGKWTFSYVGFPVELSTLYLISAHNIPNANMNEDSPSLSVNFTSPGCLNHVMKYKKQCTEAGSLWDPDITACKKNEKMVEVNFTTNPLGNRYTILIQRDTTLGFSRVLENKLMRTSVAIPVTEESEGAVVQLTPYLHTCGNDCIRREGTVVLCSETSAPIPPDDNRRMLGGWLPLFLVLLVAVWVLAAGIYLTWRQGRSTKTSFPISTMLLPLIKVLVVYPSEICFHHTVCRFTDFLQNYCRSEVILEKWQKKKIAEMGPVQWLTTQKQAADKVVFLLPSDVPTLCDSACGHNEGSARENSQVLFPLAFNLFCSDFSSQTHLHKYLVVYLGGADLKGDYNALSVCPQYHLMKDATAFHTELLKATQSMSVKKRSQACHDSCSPL
B4: Myc-tagged mouse IL-17RB point mutant P421R (receptor, UniProt Q9JIP3 18-499, looked up)
chain: REPTIQCGSETGPSPEWMVQHTLTPGDLRDLQVELVKTSVAAEEFSILMNISWILRADASIRLLKATKICVSGKNNMNSYSCVRCNYTEAFQSQTRPSGGKWTFSYVGFPVELSTLYLISAHNIPNANMNEDSPSLSVNFTSPGCLNHVMKYKKQCTEAGSLWDPDITACKKNEKMVEVNFTTNPLGNRYTILIQRDTTLGFSRVLENKLMRTSVAIPVTEESEGAVVQLTPYLHTCGNDCIRREGTVVLCSETSAPIPPDDNRRMLGGWLPLFLVLLVAVWVLAAGIYLTWRQGRSTKTSFPISTMLLPLIKVLVVYPSEICFHHTVCRFTDFLQNYCRSEVILEKWQKKKIAEMGPVQWLTTQKQAADKVVFLLPSDVPTLCDSACGHNEGSARENSQDLFRLAFNLFCSDFSSQTHLHKYLVVYLGGADLKGDYNALSVCPQYHLMKDATAFHTELLKATQSMSVKKRSQACHDSCSPL

These are yes or no findings as the source states them, for the method shown. In cells and extracts the contact can be indirect. Some binding calls cover weakened binding; strength is not graded here. Tags and fused reporters may be left off the sequences shown.

The target in the assay is T1, Act1 in IL-17RB-deficient MEFs reconstituted with Myc-tagged IL-17RB (mouse (cells are mouse embryonic fibroblasts)). The experiment in a line: co-immunoprecipitation in reconstituted IL-17RB-deficient MEFs (IP anti-Myc).
Regarding B1, the binding entry is “binds”.

For the molecule B2, the binding result is recorded as “binds”.

As to B3, the binding entry is “binds”.

For the molecule B4, the binding entry is listed as “binds”.

The values are drawn from patent publication US20150158912A1.
